According to US20180371107A1 (published 2018):
Results are given in words; binding and its absence hold for the method and conditions named. Binding calls can cover weak binding; strength is not graded here.

Sequences of proteins named here, by UniProt entry; tags and fusion partners are left off. A change or cut given only in a name is not applied to a line headed by its entry.
UniProt Q14B24: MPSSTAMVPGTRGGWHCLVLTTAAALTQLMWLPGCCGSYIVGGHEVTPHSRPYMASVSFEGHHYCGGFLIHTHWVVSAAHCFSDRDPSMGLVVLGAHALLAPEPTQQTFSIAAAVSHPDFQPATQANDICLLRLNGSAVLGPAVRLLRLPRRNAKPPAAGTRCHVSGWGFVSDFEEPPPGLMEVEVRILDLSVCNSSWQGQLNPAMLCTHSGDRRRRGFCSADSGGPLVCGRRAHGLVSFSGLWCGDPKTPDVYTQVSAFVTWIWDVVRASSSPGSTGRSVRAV

What was measured:
[1] = target: mouse active NSP4 (mA-NSP4) (mouse) (UniProt Q14B24); test: biolayer interferometry
[2] = target: mouse active NSP4 (mA-NSP4) (mouse) (UniProt Q14B24); test: biolayer interferometry, IgG1 on anti-human Fc sensors
[3] = target: mouse active NSP4 (mA-NSP4) (mouse) (UniProt Q14B24); test: biolayer interferometry, human IgG1

Measured: binding

B1: anti-NSP4 antibody 5-3 (antibody, human IgG1, V domains shown)
VH: EVQLVESGGGLVQPGGSLRLSCAASGFTFSGNDISWVRQAPGKGLEWVAGISPYGGSTYYADSVKGRFTISADTSKNTAYLQMNSLRAEDTAVYYCARRVSFYSRHAGMDYWGQGTLVTVSS
VL: DIQMTQSPSSLSASVGDRVTITCRASQDVSTAVAWYQQKPGKAPKLLIYSASFLYSGVPSRFSGSGSGTDFTLTISSLQPEDFATYYCQQSYTTPPTFGQGTKVEIKR
binds: all assays above
